Data published in publication PMC7819943, “Rice protein-binding microarrays: a tool to detect cis-acting elements near promoter regions in rice”.
The other results are listed elsewhere or left out.

Each sequence was assayed against T1, OsSMF1 (Oryza sativa, UniProt Q6ZLB0 1-436) (assay: protein-binding microarray (RPBM); PBS, 2% BSA, 51.3 ng/ul salmon testes DNA, 50 uM zinc acetate, 200 nM TF, 25 C, 1 h; high values mean tight binding). Details: protein: recombinant; tags: N-terminal polyhistidine and DsRed monomer fusion (pET32a); chain copies: 2; label: CyDye5-dUTP incorporated in the synthesized complementary strand; 3' TTTTT single-stranded linker to array surface; dsDNA, one strand shown.
T1 sequence: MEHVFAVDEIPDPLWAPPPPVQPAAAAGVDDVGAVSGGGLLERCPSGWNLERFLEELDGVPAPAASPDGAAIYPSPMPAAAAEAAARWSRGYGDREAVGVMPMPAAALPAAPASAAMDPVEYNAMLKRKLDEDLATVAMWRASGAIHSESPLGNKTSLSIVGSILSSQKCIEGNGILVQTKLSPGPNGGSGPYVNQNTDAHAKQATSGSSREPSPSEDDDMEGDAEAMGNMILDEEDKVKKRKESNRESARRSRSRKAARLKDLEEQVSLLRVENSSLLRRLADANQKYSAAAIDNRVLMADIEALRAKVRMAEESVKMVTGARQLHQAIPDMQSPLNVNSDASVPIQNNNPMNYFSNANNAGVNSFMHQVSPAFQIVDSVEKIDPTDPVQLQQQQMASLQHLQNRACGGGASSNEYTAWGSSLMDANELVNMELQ
In short: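 The binding signal is fluorescence intensity per array feature (arbitrary units). Readings came from an Axon 4000B scanner after a washed, 2% BSA-blocked, double-stranded custom Agilent array had been incubated for 1 h at 25 °C with 200 nM protein and 50 µM zinc acetate. The protein was a Ni–NTA-purified transcription factor fused N-terminally to polyhistidine and DsRed, expressed in E. coli BL21-CodonPlus.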

Row | Sequence | binding signal
1 | TCGCTAATAAATCATATGATGTCATGGGCCCGAGACATCTCGGAGTCACCTAGTGCAG | 4000 fluorescence intensity (a.u.)
2 | GCCGACCAACCGGTGACTAGACTACCATACTGGTACAGTGCGGAGTCACCTAGTGCAG | 7400 fluorescence intensity (a.u.)
3 | GAAGAAGCCAAGGTTGTCTCACTCCCAGAAGACCATACACCGGAGTCACCTAGTGCAG | 23900 fluorescence intensity (a.u.)
4 | GTACGGTGCCACGCACGGCTCTCGTCCTTTATATAAACCACGGAGTCACCTAGTGCAG | 4430 fluorescence intensity (a.u.)
5 | TTCTATTTATATCATTGCATAATCATACAGGCCATCTTGCCGGAGTCACCTAGTGCAG | 3630 fluorescence intensity (a.u.)
6 | AAAACAGGGGTCCACACAGTGACGCCACATGGCTGCTAAACGGAGTCACCTAGTGCAG | 3260 fluorescence intensity (a.u.)
7 | ATAGCCAAGCAAAATGTGTATCCTAAATGACGTGACAGGGCGGAGTCACCTAGTGCAG | 4590 fluorescence intensity (a.u.)
8 | ATCCGTTGAAATTTACACAAATAATCCCACTAAAATATATCGGAGTCACCTAGTGCAG | 19300 fluorescence intensity (a.u.)
9 | ATGGTTTGGAATTGTCACTACACTTTACTAAATTCATAGTCGGAGTCACCTAGTGCAG | 3420 fluorescence intensity (a.u.)
10 | AATCCGGTCCGTCCACGTGTAAACCGGCTCGGGTCGGGCTCGGAGTCACCTAGTGCAG | 10200 fluorescence intensity (a.u.)
11 | CCGGCGGAAGAATTTGCAATCAGAATGATTGTGCTTAATTCGGAGTCACCTAGTGCAG | 3160 fluorescence intensity (a.u.)
12 | TAATTTAATATTCCTTGCAATCTACGCTGAGTTGGATTGCCGGAGTCACCTAGTGCAG | 4890 fluorescence intensity (a.u.)
13 | ACGCCACGTACGGGATACGGGAACGCGCCCCGGTCTCCTCCGGAGTCACCTAGTGCAG | 4180 fluorescence intensity (a.u.)
14 | GCCCTCTGCTTTACTTGACCCACGAGGACCACGACGTTGACGGAGTCACCTAGTGCAG | 23100 fluorescence intensity (a.u.)
15 | ATTCTTGCTTTGAACAAGCTAGCTGGCTTGTTACAGTTAACGGAGTCACCTAGTGCAG | 7060 fluorescence intensity (a.u.)
16 | GCGAGGCTGCGACTCCAAAAGATGGCGTGTCGCTGCTGCGCGGAGTCACCTAGTGCAG | 4880 fluorescence intensity (a.u.)
17 | CGCTGTGGTGTGCAGCGGCGGTGCCACGTCCCTATTTAAACGGAGTCACCTAGTGCAG | 10900 fluorescence intensity (a.u.)
18 | ATCTCCAAAATCAGTTTAACATCGCCTAATCCACGTCGGTCGGAGTCACCTAGTGCAG | 8120 fluorescence intensity (a.u.)
19 | GAACACGAGGGCCCACATGTCAGTGACACAACCTCCCTACCGGAGTCACCTAGTGCAG | 3710 fluorescence intensity (a.u.)
20 | TGCCCGGTCGATTGATCAGCAGGTTGACGCAGGATGGCGACGGAGTCACCTAGTGCAG | 3670 fluorescence intensity (a.u.)
21 | AAGCGCCACGTTTCCCCGACGTCCACGTCCATTATCCGGCCGGAGTCACCTAGTGCAG | 5910 fluorescence intensity (a.u.)
22 | TCACCACACCTTATGCTTACGTGTAGTGTTAATAATGATTCGGAGTCACCTAGTGCAG | 4830 fluorescence intensity (a.u.)
23 | GTATTCATGTGTTGCACAGAGCCACATATACACGGTACCCCGGAGTCACCTAGTGCAG | 3420 fluorescence intensity (a.u.)
24 | AATGGATGCGACGCGTGTTAGTCGAGTAGCCGAGTCCGACCGGAGTCACCTAGTGCAG | 4160 fluorescence intensity (a.u.)
25 | ACCAGCTAGTCCATGTTTCTGACCTGGATCTTGAATTCTGCGGAGTCACCTAGTGCAG | 5180 fluorescence intensity (a.u.)
26 | CAGAATTTACTGATCAGAAGAAACATCTAGTCATTTCATTCGGAGTCACCTAGTGCAG | 3450 fluorescence intensity (a.u.)
27 | CCATAAAGTTCTCACTCTCAACTTACAAACATCTGGTTATCGGAGTCACCTAGTGCAG | 22400 fluorescence intensity (a.u.)

3 records drawn at random from those above, as already listed:
Row | Sequence | binding signal
27 | CCATAAAGTTCTCACTCTCAACTTACAAACATCTGGTTATCGGAGTCACCTAGTGCAG | 22400 fluorescence intensity (a.u.)
2 | GCCGACCAACCGGTGACTAGACTACCATACTGGTACAGTGCGGAGTCACCTAGTGCAG | 7400 fluorescence intensity (a.u.)
10 | AATCCGGTCCGTCCACGTGTAAACCGGCTCGGGTCGGGCTCGGAGTCACCTAGTGCAG | 10200 fluorescence intensity (a.u.)

(cont.)

Row | Sequence | binding signal
28 | AAAGCTCCGCGGATCGGTGAATCCGCGGGTGGTGGCGGCGCGGAGTCACCTAGTGCAG | 3220 fluorescence intensity (a.u.)
29 | TCGTGTCGAACCCCGCGGCGAGCGGGTTCGACGACGCCCTCGGAGTCACCTAGTGCAG | 3220 fluorescence intensity (a.u.)
30 | TGTTTAAACTGTTGTTATGGTTAGTTCGGTCTATAACCGACGGAGTCACCTAGTGCAG | 3550 fluorescence intensity (a.u.)
31 | TTCCATGACACATCCTCCTGATCTTGGCATATTTGCCCTCCGGAGTCACCTAGTGCAG | 4680 fluorescence intensity (a.u.)
32 | ATATAAGTAATGCTAGATGAGTCAATGACATGTGGATCAGCGGAGTCACCTAGTGCAG | 5110 fluorescence intensity (a.u.)
33 | TATCAGGCGTGCATCCAAAGCAGGTGCAGAGACTATCTCACGGAGTCACCTAGTGCAG | 9780 fluorescence intensity (a.u.)
34 | TAGCTGGTGACGGAAGATATTTCCTACTTTATATCTCTTTCGGAGTCACCTAGTGCAG | 3260 fluorescence intensity (a.u.)
35 | CCCGATGACCACCCTACGCTAGCAATCTTCCTCTTGTCGTCGGAGTCACCTAGTGCAG | 3690 fluorescence intensity (a.u.)
36 | CGGGCAGGTTGTCGCCGTCATCGTGTGGTGCGATTGCAATCGGAGTCACCTAGTGCAG | 3250 fluorescence intensity (a.u.)
37 | TATATGTGTGTGTGACTGCAATCAGATTTATTGTATTTATCGGAGTCACCTAGTGCAG | 3360 fluorescence intensity (a.u.)
38 | ACTATAATGCTTACTACAGATGATGTGTCCATCTATTGTACGGAGTCACCTAGTGCAG | 8370 fluorescence intensity (a.u.)
39 | TGTCGGTGCCTCTGCTGCCACCATCACTGCAGTCAGGTACCGGAGTCACCTAGTGCAG | 3180 fluorescence intensity (a.u.)
40 | AAGTCACCGAAGCTGAGTCCGCCTGAACCCGACCCCGTGTCGGAGTCACCTAGTGCAG | 3360 fluorescence intensity (a.u.)
41 | TGCATAAATAATTGTGTCATATTACTCCTCAATAGTAGTACGGAGTCACCTAGTGCAG | 3490 fluorescence intensity (a.u.)
42 | ATCCATATCTCGGTCGCTACACGCGTTACATCCGTACGCTCGGAGTCACCTAGTGCAG | 3200 fluorescence intensity (a.u.)
43 | CAGAATATTTTGTCAGTCACTCTTGATCACTCTAGCAACACGGAGTCACCTAGTGCAG | 3980 fluorescence intensity (a.u.)
44 | ACGGCACCTCATAGATTATTCCGTCCGTTCCAACAACCTCCGGAGTCACCTAGTGCAG | 3890 fluorescence intensity (a.u.)
45 | GTAATAATAGATTATATTCAATTAATTAATTATTTATTATCGGAGTCACCTAGTGCAG | 17400 fluorescence intensity (a.u.)
46 | CCCCTAGCGAATTCTGGATTAGCTTGGCGTGACGCCGGTGCGGAGTCACCTAGTGCAG | 3240 fluorescence intensity (a.u.)
47 | GCTTCCTCCCTACGAGCACGACCCACCCACGTCATCATCCCGGAGTCACCTAGTGCAG | 29000 fluorescence intensity (a.u.)
48 | CCATCTCCGCTCCGCTCCTCTCCTCTCCTCTCCGTGCTACCGGAGTCACCTAGTGCAG | 3160 fluorescence intensity (a.u.)
49 | GCTAAGTACTCCGTTGTCACCGCGTCCTTGGTTTTGCTAACGGAGTCACCTAGTGCAG | 3300 fluorescence intensity (a.u.)
50 | CACACGAGCCACGCATCATCCAGCAACCAACCAACCACTACGGAGTCACCTAGTGCAG | 4290 fluorescence intensity (a.u.)
51 | CTTTTGGTCTCGCGCCCACTGACACGTGGGTCCCACGCTCCGGAGTCACCTAGTGCAG | 6100 fluorescence intensity (a.u.)
52 | CCTATCACGTGGCAGCCTGCCAGCCTTAACACGTAGCGGTCGGAGTCACCTAGTGCAG | 7800 fluorescence intensity (a.u.)
53 | TAAAATGGTTTGACATGTTATAATCACGTTAATTGCATGGCGGAGTCACCTAGTGCAG | 3170 fluorescence intensity (a.u.)
54 | GTACAGGTTGGAGCTAGCTATACAGACATACAACAGTCTTCGGAGTCACCTAGTGCAG | 3360 fluorescence intensity (a.u.)
